These are yes or no findings as the source states them, for the method shown. In cells and extracts the contact can be indirect. A yes stands for co-enrichment or nearness to the bait. Other partners may have been found. For some assays here: Sequences can lack the tags named with a protein.
Legend:
[1] = biological target: T1, Heme oxygenase-1 (HO-1), endogenous, induced by Hemin in HUVECs (human (endogenous in HUVECs)) (UniProt P09601); assay: affinity purification with mass spectrometry; nuclear proteins of HUVECs transfected with ΔHO-1 or treated with Hemin; HO-1 antibody overnight at 4 °C, protein A/G beads 4 h at 4 °C, washes with 150-500 mM NaCl
T1 sequence: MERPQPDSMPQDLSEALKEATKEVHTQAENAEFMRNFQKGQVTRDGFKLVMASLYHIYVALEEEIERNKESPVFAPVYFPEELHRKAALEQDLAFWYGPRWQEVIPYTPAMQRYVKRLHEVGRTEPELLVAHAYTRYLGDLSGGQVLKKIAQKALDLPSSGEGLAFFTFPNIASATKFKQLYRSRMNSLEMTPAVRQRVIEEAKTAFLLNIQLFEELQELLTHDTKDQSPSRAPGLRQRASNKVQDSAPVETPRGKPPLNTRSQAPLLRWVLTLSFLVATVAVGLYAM

Amino acid sequences for entries named in this document (tags omitted).
UniProt P06748: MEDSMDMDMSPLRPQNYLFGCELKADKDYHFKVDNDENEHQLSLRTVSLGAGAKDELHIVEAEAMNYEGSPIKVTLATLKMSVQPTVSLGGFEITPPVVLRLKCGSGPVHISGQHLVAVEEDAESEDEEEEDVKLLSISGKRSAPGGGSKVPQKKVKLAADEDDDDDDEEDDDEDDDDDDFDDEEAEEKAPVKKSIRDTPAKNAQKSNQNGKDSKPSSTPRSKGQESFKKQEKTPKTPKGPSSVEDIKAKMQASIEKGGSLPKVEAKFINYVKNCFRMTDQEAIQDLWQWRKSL

[2] = biological target: T2, ΔHO-1, truncated heme oxygenase-1 without transmembrane segment (aa1-266), with a Flag tag (UniProt P09601); assay: as above
T2 sequence: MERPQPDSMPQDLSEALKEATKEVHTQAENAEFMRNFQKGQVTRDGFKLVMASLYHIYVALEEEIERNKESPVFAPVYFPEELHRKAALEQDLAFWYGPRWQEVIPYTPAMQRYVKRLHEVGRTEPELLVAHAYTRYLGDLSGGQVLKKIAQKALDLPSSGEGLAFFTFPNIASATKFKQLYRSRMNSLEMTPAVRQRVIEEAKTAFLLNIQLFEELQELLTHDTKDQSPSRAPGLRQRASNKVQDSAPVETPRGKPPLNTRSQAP

binding [1]: binds | binding [2]: binds
Substance: Nucleophosmin (NPM1), endogenous in HUVECs (from UniProt P06748 1-294)

— paper PMC8313700
